Positions count from the first letter of the chain named. Names and notes keep the numbering of the source.

The labels stand for the following.
B1: KDM4A WT: wild type KDM4A (major allele E482) (protein)
chain: MASESETLNPSARIMTFYPTMEEFRNFSRYIAYIESQGAHRAGLAKVVPPKEWKPRASYDDIDDLVIPAPIQQLVTGQSGLFTQYNIQKKAMTVREFRKIANSDKYCTPRYSEFEELERKYWKNLTFNPPIYGADVNGTLYEKHVDEWNIGRLRTILDLVEKESGITIEGVNTPYLYFGMWKTSFAWHTEDMDLYSINYLHFGEPKSWYSVPPEHGKRLERLAKGFFPGSAQSCEAFLRHKMTLISPLMLKKYGIPFDKVTQEAGEFMITFPYGYHAGFNHGFNCAESTNFATRRWIEYGKQAVLCSCRKDMVKISMDVFVRKFQPERYKLWKAGKDNTVIDHTLPTPEAAEFLKESELPPRAGNEEECPEEDMEGVEDGEEGDLKTSLAKHRIGTKRHRVCLEIPQEVSQSELFPKEDLSSEQYEMTECPAALAPVRPTHSSVRQVEDGLTFPDYSDSTEVKFEELKNVKLEEEDEEEEQEAAALDLSVNPASVGGRLVFSGSKKKSSSSLGSGSSRDSISSDSETSEPLSCRAQGQTGVLTVHSYAKGDGRVTVGEPCTRKKGSAARSFSERELAEVADEYMFSLEENKKSKGRRQPLSKLPRHHPLVLQECVSDDETSEQLTPEEEAEETEAWAKPLSQLWQNRPPNFEAEKEFNETMAQQAPHCAVCMIFQTYHQVEFGGFNQNCGNASDLAPQKQRTKPLIPEMCFTSTGCSTDINLSTPYLEEDGTSILVSCKKCSVRVHASCYGVPPAKASEDWMCSRCSANALEEDCCLCSLRGGALQRANDDRWVHVSCAVAILEARFVNIAERSPVDVSKIPLPRFKLKCIFCKKRRKRTAGCCVQCSHGRCPTAFHVSCAQAAGVMMQPDDWPFVVFITCFRHKIPNLERAKGALQSITAGQKVISKHKNGRFYQCEVVRLTTETFYEVNFDDGSFSDNLYPEDIVSQDCLQFGPPAEGEVVQVRWTDGQVYGAKFVASHPIQMYQVEFEDGSQLVVKRDDVYTLDEELPKRVKSRLSVASDMRFNEIFTEKEVKQEKKRQRVINSRYREDYIEPALYRAIME
modifications: left off: large carriers
B2: KDM4A SNP-A482: KDM4A germline variant E482A (protein)
chain: B1 chain with E482A
modifications: left off: large carriers; small tags and cut ends
notes: KDM4A germline variant E482A
B3: 2A-D524V: KDM4A mutation (protein)
chain: B1 chain with E482A, D524V
B4: 2A-G225C: KDM4A mutation (protein)
chain: B1 chain with G225C, E482A
B5: 2A-R400Q: KDM4A mutation (protein)
chain: B1 chain with R400Q, E482A
B6: 2A-P326T: KDM4A mutation (protein)
chain: B1 chain with P326T, E482A
B7: 2A-I87V: KDM4A mutation (protein)
chain: B1 chain with I87V, E482A
B8: 2A-K123I: KDM4A mutation (protein)
chain: B1 chain with K123I, E482A
B9: 2A-R498H: KDM4A mutation (protein)
chain: B1 chain with E482A, R498H
B10: 2A-P348L: KDM4A mutation (protein)
chain: B1 chain with P348L, E482A
B11: 2A-T289I: KDM4A mutation (protein)
chain: B1 chain with T289I, E482A
B12: 2A-E113K: KDM4A mutation (protein)
chain: B1 chain with E113K, E482A
B13: 2A-V490M: KDM4A mutation (protein)
chain: B1 chain with E482A, V490M
B14: 2A-E426K: KDM4A mutation (protein)
chain: B1 chain with E426K, E482A
B15: 2A-V319M: KDM4A mutation (protein)
chain: B1 chain with V319M, E482A
B16: 2A-A236V: KDM4A mutation (protein)
chain: B1 chain with A236V, E482A
B17: 2A-R239H: KDM4A mutation (protein)
chain: B1 chain with R239H, E482A
B18: 2A-G376V: KDM4A mutation (protein)
chain: B1 chain with G376V, E482A
B19: 2A-E368K: KDM4A mutation (protein)
chain: B1 chain with E368K, E482A
B20: 2A-R218W: KDM4A mutation (protein)
chain: B1 chain with R218W, E482A
B21: 2A-G278S: KDM4A mutation (protein)
chain: B1 chain with G278S, E482A
B22: 2A-R152W*: KDM4A mutation (protein, UniProt O75164 2-1064, looked up, variant R152W)
Lysine-specific demethylase 4A: ASESETLNPSARIMTFYPTMEEFRNFSRYIAYIESQGAHRAGLAKVVPPKEWKPRASYDDIDDLVIPAPIQQLVTGQSGLFTQYNIQKKAMTVREFRKIANSDKYCTPRYSEFEELERKYWKNLTFNPPIYGADVNGTLYEKHVDEWNIGWLRTILDLVEKESGITIEGVNTPYLYFGMWKTSFAWHTEDMDLYSINYLHFGEPKSWYSVPPEHGKRLERLAKGFFPGSAQSCEAFLRHKMTLISPLMLKKYGIPFDKVTQEAGEFMITFPYGYHAGFNHGFNCAESTNFATRRWIEYGKQAVLCSCRKDMVKISMDVFVRKFQPERYKLWKAGKDNTVIDHTLPTPEAAEFLKESELPPRAGNEEECPEEDMEGVEDGEEGDLKTSLAKHRIGTKRHRVCLEIPQEVSQSELFPKEDLSSEQYEMTECPAALAPVRPTHSSVRQVEDGLTFPDYSDSTEVKFEELKNVKLEEEDEEEEQAAAALDLSVNPASVGGRLVFSGSKKKSSSSLGSGSSRDSISSDSETSEPLSCRAQGQTGVLTVHSYAKGDGRVTVGEPCTRKKGSAARSFSERELAEVADEYMFSLEENKKSKGRRQPLSKLPRHHPLVLQECVSDDETSEQLTPEEEAEETEAWAKPLSQLWQNRPPNFEAEKEFNETMAQQAPHCAVCMIFQTYHQVEFGGFNQNCGNASDLAPQKQRTKPLIPEMCFTSTGCSTDINLSTPYLEEDGTSILVSCKKCSVRVHASCYGVPPAKASEDWMCSRCSANALEEDCCLCSLRGGALQRANDDRWVHVSCAVAILEARFVNIAERSPVDVSKIPLPRFKLKCIFCKKRRKRTAGCCVQCSHGRCPTAFHVSCAQAAGVMMQPDDWPFVVFITCFRHKIPNLERAKGALQSITAGQKVISKHKNGRFYQCEVVRLTTETFYEVNFDDGSFSDNLYPEDIVSQDCLQFGPPAEGEVVQVRWTDGQVYGAKFVASHPIQMYQVEFEDGSQLVVKRDDVYTLDEELPKRVKSRLSVASDMRFNEIFTEKEVKQEKKRQRVINSRYREDYIEPALYRAIME

A short description of the first data set: Subcellular localization of KDM4 variants (immunofluorescence). It counts as cell-based. To be noted: % of the cells; transiently transfected GFP-tagged KDM4A.
Take B1: the “both nuclear and cytoplasmic” value came out at 15%; the exclusively nuclear came to 85%.
Take B2: the “both nuclear and cytoplasmic” value is listed as 49%; the exclusively nuclear worked out at 51%.

The same data set, now with this note: KDM4A mutations; % nuclear.
With B3, the Localization result is recorded as “+++ (+++ indicates >80% nuclear)”.
In the case of B4, the Localization result is listed as “++ (++ indicates 60-79% nuclear)”.
Turning to B5, the Localization entry was “+ (+ indicates 40-59% nuclear)”.
Consider B6, for which the Localization result is given as “++ (++ indicates 60-79% nuclear)”.
For the molecule B7, the Localization result was “+++ (+++ indicates >80% nuclear)”.
On to B8, for which the Localization result is given as “+ (+ indicates 40-59% nuclear)”.
Regarding B9, the Localization entry was “++ (++ indicates 60-79% nuclear)”.
B10: the Localization result is on record as “++ (++ indicates 60-79% nuclear)”.
As for B11, the Localization entry is “+++ (+++ indicates >80% nuclear)”.
The same measure, in the same setting: the entry for B12 is “+++ (+++ indicates >80% nuclear)”.
With B13, the Localization result was “++ (++ indicates 60-79% nuclear)”.
For B14, the Localization result is given as “+++ (+++ indicates >80% nuclear)”.
B15: the Localization result was “++ (++ indicates 60-79% nuclear)”.
The same measure, in the same setting: the entry for B16 is “+++ (+++ indicates >80% nuclear)”.
Take B17: the Localization entry is “+++ (+++ indicates >80% nuclear)”.
On the same count and under the same terms, with B18 the entry was “++ (++ indicates 60-79% nuclear)”; with B19, “++ (++ indicates 60-79% nuclear)”; with B20, “++ (++ indicates 60-79% nuclear)”.
Take B21: the Localization result is recorded as “+++ (+++ indicates >80% nuclear)”.
B22: the Localization entry is given as “+++ (+++ indicates >80% nuclear)”.
